From paper PMC11196597
No constants are given. Whether binding was seen depends on the method and setting. For some assays here: Binding seen in cells or lysates may run through a third protein. Some entries that bind do so weakly or less than the wild type. For some assays here: Tags and fused reporters may be left off the sequences shown.

Amino acid sequences for entries named in this document (tags omitted). A change or cut given only in a name is not applied to a line headed by its entry.
UniProt P40337: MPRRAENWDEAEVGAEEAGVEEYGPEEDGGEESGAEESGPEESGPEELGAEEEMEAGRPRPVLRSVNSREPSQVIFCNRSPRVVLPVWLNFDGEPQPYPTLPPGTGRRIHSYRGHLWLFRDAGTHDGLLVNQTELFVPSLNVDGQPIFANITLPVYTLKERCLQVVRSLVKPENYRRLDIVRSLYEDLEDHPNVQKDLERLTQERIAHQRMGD

Legend:
[1] = target: Flag-VHL, full-length (human) (UniProt P40337); experiment: co-IP; mapping of UBE3B regions: full-length (FL) or truncated Myc-UBE3B with VHL; cells and form of VHL not given
[2] = target: Flag-VHL, full-length (human) (UniProt P40337); experiment: co-IP; mapping of VHL regions: full-length Flag-VHL or Flag-tagged acidic domain, β-domain or α-domain transiently transfected into HEK293T cells; form of UBE3B not given
[3] = target: Flag-VHL, full-length (human) (UniProt P40337); experiment: co-IP; HEK293T and HeLa cells transfected with Flag-VHL and Myc-UBE3B; IP with anti-Flag or anti-Myc antibody and protein G/A magnetic beads overnight at 4 °C; lysis buffer 10 mM Tris-HCl, 150 mM NaCl, 1 mM EDTA, 0.5% NP-40, pH 7.4
[4] = target: endogenous VHL (human (endogenous in MDA-MB-231 and T47D)) (UniProt P40337); experiment: co-IP; endogenous proteins in MDA-MB-231 and T47D cells treated with 10 μM MG132 for 6 h before harvest; IP of UBE3B or of VHL; lysis buffer 10 mM Tris-HCl, 150 mM NaCl, 1 mM EDTA, 0.5% NP-40, pH 7.4
GST-VHL (human) = GST-VHL (human) (UniProt P40337); experiment: pull-down; GST pull-down with purified GST-VHL (or GST alone) and purified His-UBE3B in equal amounts; beads washed five times; western blot; both purified

B1: Myc-UBE3B, full-length (FL) (protein, UniProt Q7Z3V4 1-1068)
chain: MFTLSQTSRAWFIDRARQAREERLVQKERERAAVVIQAHVRSFLCRSRLQRDIRREIDDFFKADDPESTKRSALCIFKIARKLLFLFRIKEDNERFEKLCRSILSSMDAENEPKVWYVSLACSKDLTLLWIQQIKNILWYCCDFLKQLKPEILQDSRLITLYLTMLVTFTDTSTWKILRGKGESLRPAMNHICANIMGHLNQHGFYSVLQILLTRGLARPRPCLSKGTLTAAFSLALRPVIAAQFSDNLIRPFLIHIMSVPALVTHLSTVTPERLTVLESHDMLRKFIIFLRDQDRCRDVCESLEGCHTLCLMGNLLHLGSLSPRVLEEETDGFVSLLTQTLCYCRKYVSQKKSNLTHWHPVLGWFSQSVDYGLNESMHLITKQLQFLWGVPLIRIFFCDILSKKLLESQEPAHAQPASPQNVLPVKSLLKRAFQKSASVRNILRPVGGKRVDSAEVQKVCNICVLYQTSLTTLTQIRLQILTGLTYLDDLLPKLWAFICELGPHGGLKLFLECLNNDTEESKQLLAMLMLFCDCSRHLITILDDIEVYEEQISFKLEELVTISSFLNSFVFKMIWDGIVENAKGETLELFQSVHGWLMVLYERDCRRRFTPEDHWLRKDLKPSVLFQELDRDRKRAQLILQYIPHVIPHKNRVLLFRTMVTKEKEKLGLVETSSASPHVTHITIRRSRMLEDGYEQLRQLSQHAMKGVIRVKFVNDLGVDEAGIDQDGVFKEFLEEIIKRVFDPALNLFKTTSGDERLYPSPTSYIHENYLQLFEFVGKMLGKAVYEGIVVDVPFASFFLSQLLGHHHSVFYSSVDELPSLDSEFYKNLTSIKRYDGDITDLGLTLSYDEDVMGQLVCHELIPGGKTIPVTNENKISYIHLMAHFRMHTQIKNQTAALISGFRSIIKPEWIRMFSTPELQRLISGDNAEIDLEDLKKHTVYYGGFHGSHRVIIWLWDILASDFTPDERAMFLKFVTSCSRPPLLGFAYLKPPFSIRCVEVSDDQDTGDTLGSVLRGFFTIRKREPGGRLPTSSTCFNLLKLPNYSKKSVLREKLRYAISMNTGFELS
- binding [1]: binds
- binding [2]: binds
- binding [3]: binds

B2: endogenous UBE3B (protein, UniProt Q7Z3V4 1-1068)
chain: MFTLSQTSRAWFIDRARQAREERLVQKERERAAVVIQAHVRSFLCRSRLQRDIRREIDDFFKADDPESTKRSALCIFKIARKLLFLFRIKEDNERFEKLCRSILSSMDAENEPKVWYVSLACSKDLTLLWIQQIKNILWYCCDFLKQLKPEILQDSRLITLYLTMLVTFTDTSTWKILRGKGESLRPAMNHICANIMGHLNQHGFYSVLQILLTRGLARPRPCLSKGTLTAAFSLALRPVIAAQFSDNLIRPFLIHIMSVPALVTHLSTVTPERLTVLESHDMLRKFIIFLRDQDRCRDVCESLEGCHTLCLMGNLLHLGSLSPRVLEEETDGFVSLLTQTLCYCRKYVSQKKSNLTHWHPVLGWFSQSVDYGLNESMHLITKQLQFLWGVPLIRIFFCDILSKKLLESQEPAHAQPASPQNVLPVKSLLKRAFQKSASVRNILRPVGGKRVDSAEVQKVCNICVLYQTSLTTLTQIRLQILTGLTYLDDLLPKLWAFICELGPHGGLKLFLECLNNDTEESKQLLAMLMLFCDCSRHLITILDDIEVYEEQISFKLEELVTISSFLNSFVFKMIWDGIVENAKGETLELFQSVHGWLMVLYERDCRRRFTPEDHWLRKDLKPSVLFQELDRDRKRAQLILQYIPHVIPHKNRVLLFRTMVTKEKEKLGLVETSSASPHVTHITIRRSRMLEDGYEQLRQLSQHAMKGVIRVKFVNDLGVDEAGIDQDGVFKEFLEEIIKRVFDPALNLFKTTSGDERLYPSPTSYIHENYLQLFEFVGKMLGKAVYEGIVVDVPFASFFLSQLLGHHHSVFYSSVDELPSLDSEFYKNLTSIKRYDGDITDLGLTLSYDEDVMGQLVCHELIPGGKTIPVTNENKISYIHLMAHFRMHTQIKNQTAALISGFRSIIKPEWIRMFSTPELQRLISGDNAEIDLEDLKKHTVYYGGFHGSHRVIIWLWDILASDFTPDERAMFLKFVTSCSRPPLLGFAYLKPPFSIRCVEVSDDQDTGDTLGSVLRGFFTIRKREPGGRLPTSSTCFNLLKLPNYSKKSVLREKLRYAISMNTGFELS
- binding [4]: binds

B3: His-UBE3B (protein, UniProt Q7Z3V4 1-1068)
chain: MFTLSQTSRAWFIDRARQAREERLVQKERERAAVVIQAHVRSFLCRSRLQRDIRREIDDFFKADDPESTKRSALCIFKIARKLLFLFRIKEDNERFEKLCRSILSSMDAENEPKVWYVSLACSKDLTLLWIQQIKNILWYCCDFLKQLKPEILQDSRLITLYLTMLVTFTDTSTWKILRGKGESLRPAMNHICANIMGHLNQHGFYSVLQILLTRGLARPRPCLSKGTLTAAFSLALRPVIAAQFSDNLIRPFLIHIMSVPALVTHLSTVTPERLTVLESHDMLRKFIIFLRDQDRCRDVCESLEGCHTLCLMGNLLHLGSLSPRVLEEETDGFVSLLTQTLCYCRKYVSQKKSNLTHWHPVLGWFSQSVDYGLNESMHLITKQLQFLWGVPLIRIFFCDILSKKLLESQEPAHAQPASPQNVLPVKSLLKRAFQKSASVRNILRPVGGKRVDSAEVQKVCNICVLYQTSLTTLTQIRLQILTGLTYLDDLLPKLWAFICELGPHGGLKLFLECLNNDTEESKQLLAMLMLFCDCSRHLITILDDIEVYEEQISFKLEELVTISSFLNSFVFKMIWDGIVENAKGETLELFQSVHGWLMVLYERDCRRRFTPEDHWLRKDLKPSVLFQELDRDRKRAQLILQYIPHVIPHKNRVLLFRTMVTKEKEKLGLVETSSASPHVTHITIRRSRMLEDGYEQLRQLSQHAMKGVIRVKFVNDLGVDEAGIDQDGVFKEFLEEIIKRVFDPALNLFKTTSGDERLYPSPTSYIHENYLQLFEFVGKMLGKAVYEGIVVDVPFASFFLSQLLGHHHSVFYSSVDELPSLDSEFYKNLTSIKRYDGDITDLGLTLSYDEDVMGQLVCHELIPGGKTIPVTNENKISYIHLMAHFRMHTQIKNQTAALISGFRSIIKPEWIRMFSTPELQRLISGDNAEIDLEDLKKHTVYYGGFHGSHRVIIWLWDILASDFTPDERAMFLKFVTSCSRPPLLGFAYLKPPFSIRCVEVSDDQDTGDTLGSVLRGFFTIRKREPGGRLPTSSTCFNLLKLPNYSKKSVLREKLRYAISMNTGFELS
- binding (GST-VHL (human)): binds
